{"source": "patent US20080191164A1", "about": "“Method For the Treatment of a Material Other Than the Human Body” (priority 2005, published 2008)", "key": {"[1]": {"experiment": "Degreasing of steel sheets, cotton pad test", "design": "key: 1: visible residual presence of a thin greasy film; 2: visible residual presence of small greasy spots; 3: visible absence of fatty substance (degreased sheet)", "conditions": "steel sheet, cotton pad applied twice, rinsed with cold water"}, "[2]": {"experiment": "Degreasing of steel sheets, cotton pad test", "design": "key: 1: visible residual presence of a thin greasy film; 2: visible residual presence of small greasy spots; 3: visible absence of fatty substance (degreased sheet)", "conditions": "steel sheet, cotton pad applied twice, rinsed with cold water", "remark": "listed apart in the source"}, "[3]": {"experiment": "Degreasing of steel sheets, cotton pad test", "design": "key: 1: visible residual presence of a thin greasy film; 2: visible residual presence of small greasy spots; 3: visible absence of fatty substance (degreased sheet)", "conditions": "steel sheet, cotton pad applied twice, rinsed with cold water", "remark": "listed apart in the source"}, "[4]": {"experiment": "Degreasing of steel sheets, cotton pad test", "design": "key: 1: visible residual presence of a thin greasy film; 2: visible residual presence of small greasy spots; 3: visible absence of fatty substance (degreased sheet)", "conditions": "steel sheet, cotton pad applied twice, rinsed with cold water", "remark": "listed apart in the source"}, "[5]": {"experiment": "Degreasing of steel sheets, cotton pad test", "design": "key: 1: visible residual presence of a thin greasy film; 2: visible residual presence of small greasy spots; 3: visible absence of fatty substance (degreased sheet)", "conditions": "steel sheet, cotton pad applied twice, rinsed with cold water", "remark": "listed apart in the source"}, "[6]": {"experiment": "Overall grade as degreasing composition", "conditions": "from number of the 9 fatty substances with grade 3"}, "[7]": {"experiment": "Degreasing of steel sheets, cotton pad test", "design": "key: 1: visible residual presence of a thin greasy film; 2: visible residual presence of small greasy spots; 3: visible absence of fatty substance (degreased sheet)", "conditions": "steel sheet, cotton pad applied twice, rinsed with cold water", "remark": "listed apart in the source"}, "[8]": {"experiment": "Degreasing of steel sheets, cotton pad test", "design": "key: 1: visible residual presence of a thin greasy film; 2: visible residual presence of small greasy spots; 3: visible absence of fatty substance (degreased sheet)", "conditions": "steel sheet, cotton pad applied twice, rinsed with cold water", "remark": "listed apart in the source"}, "[9]": {"experiment": "Degreasing of steel sheets, cotton pad test", "design": "key: 1: visible residual presence of a thin greasy film; 2: visible residual presence of small greasy spots; 3: visible absence of fatty substance (degreased sheet)", "conditions": "steel sheet, cotton pad applied twice, rinsed with cold water", "remark": "listed apart in the source"}}, "data": [{"smiles": "ClC=C(Cl)Cl", "note": "[Composition 1, trichloroethylene]", "values": [{"measurement": "degreasing grade FS 2", "setting": "[1]", "result": 3}, {"measurement": "degreasing grade FS 9", "setting": "[2]", "result": 3}, {"measurement": "degreasing grade FS 6", "setting": "[3]", "result": 3}, {"measurement": "degreasing grade FS 8", "setting": "[4]", "result": 3}, {"measurement": "degreasing grade FS 3", "setting": "[5]", "result": 3}, {"measurement": "OVERALL GRADE (/10)", "setting": "[6]", "result": "10 /10"}, {"measurement": "degreasing grade FS 7", "setting": "[7]", "result": 3}, {"measurement": "degreasing grade FS 1", "setting": "[8]", "result": 3}, {"measurement": "degreasing grade FS 4", "setting": "[9]", "result": 3}]}, {"smiles": "C=C(C)[C@H]1CC=C(C)CC1", "note": "[Composition 3, dipentene]", "values": [{"measurement": "degreasing grade FS 2", "setting": "[1]", "result": 3}, {"measurement": "degreasing grade FS 9", "setting": "[2]", "result": 3}, {"measurement": "degreasing grade FS 6", "setting": "[3]", "result": 3}, {"measurement": "degreasing grade FS 8", "setting": "[4]", "result": 2}, {"measurement": "degreasing grade FS 3", "setting": "[5]", "result": 3}, {"measurement": "OVERALL GRADE (/10)", "setting": "[6]", "result": "9 /10"}, {"measurement": "degreasing grade FS 7", "setting": "[7]", "result": 3}, {"measurement": "degreasing grade FS 1", "setting": "[8]", "result": 3}, {"measurement": "degreasing grade FS 4", "setting": "[9]", "result": 3}]}, {"smiles": "CCOC(=O)C(C)O", "note": "(stereo not drawn) [Composition 4, ethyl lactate]", "values": [{"measurement": "degreasing grade FS 2", "setting": "[1]", "result": 3}, {"measurement": "degreasing grade FS 9", "setting": "[2]", "result": 3}, {"measurement": "degreasing grade FS 6", "setting": "[3]", "result": 3}, {"measurement": "degreasing grade FS 8", "setting": "[4]", "result": 2}, {"measurement": "degreasing grade FS 3", "setting": "[5]", "result": 3}, {"measurement": "OVERALL GRADE (/10)", "setting": "[6]", "result": "8 /10"}, {"measurement": "degreasing grade FS 7", "setting": "[7]", "result": 3}, {"measurement": "degreasing grade FS 1", "setting": "[8]", "result": 3}, {"measurement": "degreasing grade FS 4", "setting": "[9]", "result": 3}]}, {"smiles": "CO[C@H]1CO[C@H]2[C@@H]1OC[C@H]2OC", "note": "[Composition 5, dimethyl isosorbide]", "values": [{"measurement": "degreasing grade FS 2", "setting": "[1]", "result": 3}, {"measurement": "degreasing grade FS 9", "setting": "[2]", "result": 3}, {"measurement": "degreasing grade FS 6", "setting": "[3]", "result": 2}, {"measurement": "degreasing grade FS 8", "setting": "[4]", "result": 2}, {"measurement": "degreasing grade FS 3", "setting": "[5]", "result": 2}, {"measurement": "OVERALL GRADE (/10)", "setting": "[6]", "result": "6 /10"}, {"measurement": "degreasing grade FS 7", "setting": "[7]", "result": 3}, {"measurement": "degreasing grade FS 1", "setting": "[8]", "result": 3}, {"measurement": "degreasing grade FS 4", "setting": "[9]", "result": 3}]}, {"smiles": "ClCCl", "note": "[Composition 2, dichloromethane]", "values": [{"measurement": "degreasing grade FS 2", "setting": "[1]", "result": 3}, {"measurement": "degreasing grade FS 9", "setting": "[2]", "result": 3}, {"measurement": "degreasing grade FS 6", "setting": "[3]", "result": 3}, {"measurement": "degreasing grade FS 8", "setting": "[4]", "result": 3}, {"measurement": "degreasing grade FS 3", "setting": "[5]", "result": 3}, {"measurement": "OVERALL GRADE (/10)", "setting": "[6]", "result": "10 /10"}, {"measurement": "degreasing grade FS 7", "setting": "[7]", "result": 3}, {"measurement": "degreasing grade FS 1", "setting": "[8]", "result": 3}, {"measurement": "degreasing grade FS 4", "setting": "[9]", "result": 3}]}]}
